PubChem BioAssay AID1508588 – Peter MacCallum Cancer Centre, 2020

Test: 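Knock-downs boosting vemurafenib effects on melanoma cell growth or lactate release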 (primary screen)
Cell system: human WM266.4 melanoma cells (BRAF V600 mutant)
Reagent: siRNA pool against human genes, 40 nM
Timing: 96 h from transfection to read-out
Conditions: vemurafenib 300 nM (about IC25), added 48 h after transfection, for 48 h; comparison arm got DMSO vehicle only
Measured: 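Ratios to non-targeting siRNA for cell gain, counted as DAPI nuclei after minus before drug and averaged over two replicates, and for absorbance-read medium lactate per cell; both binned into fold-change classes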
Direction: cell gain with vemurafenib: higher = more cell gain than with non-targeting siRNA; lactate per cell with vemurafenib: higher = more lactate made per cell
Call rule: 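a knock-down counts as enhancing when its fold-change classes with vehicle and with vemurafenib, taken together, show a stronger drug effect on cell gain or lactate per cell; exact class pairs not stated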
Meaning of the calls: active = enhances vemurafenib effect; inactive = no enhancement seen
In all, the deposit lists about 18,000 reagents; this is an unselected part. 790 of them (4.4%) were called active. 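Calls rest on a combination of fold-change classes in drug and vehicle arms, not all shown here.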 Unmarked entries are inactive. No sequences are given here.

gene | cell gain with vemurafenib | lactate per cell with vemurafenib
AKR1C8 | 0.42 | 2.5
B3GNT2 | 0.77 | 0.96
GALNT11 | 0.22 | 1.85
RABL2A | 0.68 | 0.78
INTS14 | 0.97 | 0.46
OR11A1 | 1.03 | 0.36
PARD6B | 0.52 | 1.44
CAMTA1 | 0.02 | 1.04
ZNF768 | 0.5 | 1.04
RIOK3 | 0.85 | 0.66
RPS4X | -0.2 | 3.01
ADCYAP1 | 0.71 | 0.69
MAPKAPK5 | 0.18 | 3.45
CDH6 | 0.92 | 1.04
TIGD7 | 0.54 | 1.09
PRR23E | 0.93 | 0.74
TAS2R3 | 0.51 | 0.68
ZCCHC9 | 0.55 | 0.83
SERHL | 0.76 | 0.45
ACER2 | -0.06 | 2.05
ZNF595 | 0.77 | 0.57
HDAC4 | 0.12 | 1.69
TNMD | 0.57 | 0.71
TTLL6 | 0.54 | 1.44
CALHM2 | 0.73 | 0.66
PDCD1 | 0.37 | 1.35
MYOC | 0.59 | 1.29
PMM1 | 0.27 | 2
ZC3HAV1L | 1.04 | 0.82
PDCD5 | 0.71 | 1.12
ERGIC1 | 0.52 | 1.22
LZTR1 | 0.62 | 0.74
CEACAM8 | 0.51 | 0.52
C1QTNF9B | 1.27 | 0.99
OR4E2 | 0.22 | 0.39
GCK | -0.01 (active) | 0.3
DLK1 | 0.36 | 1.01
MTF2 | 0.78 | 0.44
CABP4 | 0.6 | 1.29
DSG1 | 0.47 | 0.3
MARVELD3 | 0.52 | 0.75
HERC2P3 | 0.2 | 1.61
NFE2L2 | 0.56 | 1.09
ATP1B1 | 0.58 | 1.56
PSKH1 | 0.4 | 1.14
SETDB1 | 0.52 | 1.07
WBP2NL | 1.39 | 0.4
PITX2 | 0.55 | 1.32
ECPAS | 0.44 | 0.26
GJA4 | 1.27 | 0.68
SLC5A2 | 1.53 | 0.71
MPZL2 | 0.64 | 0.95
CKM | 0.96 | 0.62
ACTL9 | 0.48 | 1.55
THAP1 | 0.9 | 0.61
LY75 | 0.56 | 1.91
PARP16 | 0 (active) | 0.12

9 entries already listed, ordered by “cell gain with vemurafenib”, high to low.
gene | cell gain with vemurafenib | lactate per cell with vemurafenib
ZC3HAV1L | 1.04 | 0.82
ZNF595 | 0.77 | 0.57
CALHM2 | 0.73 | 0.66
MYOC | 0.59 | 1.29
TNMD | 0.57 | 0.71
TTLL6 | 0.54 | 1.44
PDCD1 | 0.37 | 1.35
PMM1 | 0.27 | 2
HDAC4 | 0.12 | 1.69
